Values from PubChem BioAssay AID652243 (Drosophila RNAi Screening Center, 2013)
Test: 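Fly regulators of androgen-dependent reporter output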 (primary screen). Cell system: Drosophila S2R+ cells. Reagent: long dsRNA against Drosophila genes. Time to read-out: 72 h (48 h, then 24 h hormone). Conditions: synthetic androgen R1881 at 10 nM for 24 h. Read-out: 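Per-well raw luminescence of the androgen-driven firefly reporter and of the Renilla control, two replicates each, without normalisation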. Scale: firefly reporter light: higher = more light from androgen-responsive reporter; Renilla control light: higher = more constitutive control signal (cell number, transfection). Call rule: 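Hit when the log firefly-to-Renilla ratio dropped or increased by a fixed fold versus the mean of GFP or LacZ controls across duplicate plates; lowering cut given as 1.5 and as 3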. Calls: active = hit: reporter lowered or raised; inactive = no hit.
The screen tested about 24,000 reagents; below is an unselected part of those with a known target gene and a result. Over the whole deposit, 246 (1%) were called active. 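Plates not normalised; calls are printed but the firefly/Renilla ratio behind them is not deposited; fold cut for lowering reported inconsistently.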 Raw values are not corrected between plates. The numbers tell different reagents against one gene apart. A plus sign joins genes that one reagent is predicted to hit. Not stated in the record: the amount of reagent.

target gene,dsRNA no.,"firefly reporter light, replicate 1","firefly reporter light, replicate 2","Renilla control light, replicate 1","Renilla control light, replicate 2",activity call
CG14971,1,7.75e5,6.95e5,1.30e6,1.56e6,inactive
CG9686,1,60877,83093,1.69e6,1.20e6,inactive
CG9686,2,2.68e5,5.61e5,1.15e6,1.36e6,inactive
Cp38,1,3.96e5,4.70e5,3.09e6,2.94e6,inactive
Lnpk,1,7.03e5,8.49e5,1.18e6,1.68e6,inactive
Lnpk,2,9.12e5,1.06e6,1.19e6,1.61e6,inactive
CG1662,1,96770,1.23e5,1.00e6,1.07e6,inactive
rgn,1,56265,33108,2.53e5,2.30e5,inactive
rho-7,1,4.21e5,3.59e5,1.60e6,2.29e6,inactive
CG31199,1,1.06e5,1.43e5,6.83e5,1.07e6,inactive
CG5854,1,3.62e5,4.90e5,3.05e6,3.72e6,inactive
CG5854,2,4.85e5,3.73e5,1.67e6,1.35e6,inactive
CG11550,1,2.00e5,1.60e5,2.13e6,2.19e6,inactive
CG15044,1,5.50e5,6.02e5,4.72e6,4.49e6,inactive
CG15044,2,6.20e5,6.16e5,2.43e6,2.04e6,inactive
CG15044,3,3.97e5,7.79e5,1.33e6,2.19e6,inactive
sc,1,68055,94677,2.27e6,1.93e6,inactive
sc,2,1.17e6,1.03e6,1.40e6,1.25e6,inactive
mag,1,35866,43985,2.89e5,3.99e5,inactive
mag,2,5.57e5,7.32e5,6.77e5,8.74e5,inactive
l(3)neo38,1,1.88e5,2.20e5,2.08e6,1.36e6,inactive
l(3)neo38,2,1.17e5,1.70e5,2.78e6,2.93e6,inactive
l(3)neo38,3,7.06e5,6.04e5,1.12e6,8.38e5,inactive
l(3)neo38,4,4.75e5,4.71e5,8.07e5,6.90e5,inactive
l(3)neo38,5,4.31e5,2.54e5,6.13e5,5.18e5,inactive
CG32236,1,1.80e5,2.26e5,3.14e5,3.71e5,inactive
Dys + snoRNA:Me18S-A1374,1,35078,49636,8.56e5,1.35e6,inactive
RnrL,1,5.20e5,7.89e5,1.46e6,2.13e6,inactive
Spn42Dc,1,1.19e5,1.25e5,1.17e6,5.58e5,inactive
CG16812,1,8.52e5,1.03e6,2.13e6,1.83e6,inactive
CG16812,2,7.12e5,7.02e5,9.14e5,9.11e5,inactive
CG15043,1,3.55e5,4.69e5,2.35e6,2.50e6,inactive
CG15043,2,4.86e5,4.27e5,8.16e5,8.16e5,inactive
babos,1,1.29e5,1.94e5,6.39e5,7.38e5,inactive
babos,2,1.04e6,6.80e5,1.42e6,9.26e5,inactive

In a second layout: entries from further up.
{"target gene": "CG15044", "dsRNA no.": 1, "firefly reporter light, replicate 1": 5.50e5, "firefly reporter light, replicate 2": 6.02e5, "Renilla control light, replicate 1": 4.72e6, "Renilla control light, replicate 2": 4.49e6, "activity call": "inactive"}
{"target gene": "CG15044", "dsRNA no.": 2, "firefly reporter light, replicate 1": 6.20e5, "firefly reporter light, replicate 2": 6.16e5, "Renilla control light, replicate 1": 2.43e6, "Renilla control light, replicate 2": 2.04e6, "activity call": "inactive"}
{"target gene": "CG15044", "dsRNA no.": 3, "firefly reporter light, replicate 1": 3.97e5, "firefly reporter light, replicate 2": 7.79e5, "Renilla control light, replicate 1": 1.33e6, "Renilla control light, replicate 2": 2.19e6, "activity call": "inactive"}
{"target gene": "sc", "dsRNA no.": 1, "firefly reporter light, replicate 1": 68055, "firefly reporter light, replicate 2": 94677, "Renilla control light, replicate 1": 2.27e6, "Renilla control light, replicate 2": 1.93e6, "activity call": "inactive"}
{"target gene": "sc", "dsRNA no.": 2, "firefly reporter light, replicate 1": 1.17e6, "firefly reporter light, replicate 2": 1.03e6, "Renilla control light, replicate 1": 1.40e6, "Renilla control light, replicate 2": 1.25e6, "activity call": "inactive"}
{"target gene": "mag", "dsRNA no.": 1, "firefly reporter light, replicate 1": 35866, "firefly reporter light, replicate 2": 43985, "Renilla control light, replicate 1": 2.89e5, "Renilla control light, replicate 2": 3.99e5, "activity call": "inactive"}
{"target gene": "mag", "dsRNA no.": 2, "firefly reporter light, replicate 1": 5.57e5, "firefly reporter light, replicate 2": 7.32e5, "Renilla control light, replicate 1": 6.77e5, "Renilla control light, replicate 2": 8.74e5, "activity call": "inactive"}
{"target gene": "l(3)neo38", "dsRNA no.": 1, "firefly reporter light, replicate 1": 1.88e5, "firefly reporter light, replicate 2": 2.20e5, "Renilla control light, replicate 1": 2.08e6, "Renilla control light, replicate 2": 1.36e6, "activity call": "inactive"}
{"target gene": "l(3)neo38", "dsRNA no.": 2, "firefly reporter light, replicate 1": 1.17e5, "firefly reporter light, replicate 2": 1.70e5, "Renilla control light, replicate 1": 2.78e6, "Renilla control light, replicate 2": 2.93e6, "activity call": "inactive"}
{"target gene": "l(3)neo38", "dsRNA no.": 3, "firefly reporter light, replicate 1": 7.06e5, "firefly reporter light, replicate 2": 6.04e5, "Renilla control light, replicate 1": 1.12e6, "Renilla control light, replicate 2": 8.38e5, "activity call": "inactive"}
{"target gene": "l(3)neo38", "dsRNA no.": 4, "firefly reporter light, replicate 1": 4.75e5, "firefly reporter light, replicate 2": 4.71e5, "Renilla control light, replicate 1": 8.07e5, "Renilla control light, replicate 2": 6.90e5, "activity call": "inactive"}

The results go on.
target gene,dsRNA no.,"firefly reporter light, replicate 1","firefly reporter light, replicate 2","Renilla control light, replicate 1","Renilla control light, replicate 2",activity call
Wdr81,1,1.04e6,1.26e6,2.02e6,2.19e6,inactive
Wdr81,2,2.41e5,2.28e5,5.34e5,5.71e5,inactive
CG14400,1,1.01e5,1.24e5,1.06e6,9.18e5,inactive
CR31700,1,1.78e5,2.36e5,2.58e5,3.39e5,inactive
Uhg3,1,9.43e5,1.02e6,2.76e6,1.80e6,inactive
GMF,1,1.09e6,1.21e6,1.51e6,2.92e6,inactive
CG15098,1,1.35e5,1.80e5,2.01e6,2.04e6,inactive
CG15098,2,8.61e5,7.52e5,9.43e5,9.86e5,inactive
Zaf1,1,1.87e5,1.62e5,2.15e6,2.35e6,inactive
Dyro,1,61519,49869,1.31e6,1.19e6,inactive
Dyro,2,6.63e5,8.18e5,6.06e5,8.93e5,inactive
CRMP,1,1.17e5,55144,2.81e5,1.82e5,inactive
CRMP,2,57019,38173,3.51e5,4.35e5,inactive
CRMP,3,2.72e5,2.28e5,5.14e5,8.92e5,inactive
RpL24,1,1.63e5,1.32e5,8.00e5,8.07e5,inactive
RpL24,2,3.76e5,3.26e5,7.60e5,6.98e5,inactive
rt,1,1.96e5,1.34e5,1.83e6,1.34e6,inactive
Tsp,1,9.57e5,1.41e6,2.31e6,2.52e6,inactive
Tsp,2,1.90e5,2.14e5,2.01e6,2.20e6,inactive
CG8237,1,7.85e5,7.56e5,1.22e6,1.22e6,inactive
CG8237,2,5.22e5,4.98e5,6.85e5,5.67e5,inactive
emc,1,6.91e5,6.86e5,8.88e5,1.08e6,inactive
emc,2,6.53e5,8.32e5,6.68e5,1.24e6,inactive
retn,1,2.37e5,3.09e5,1.91e6,2.30e6,inactive
retn,2,3.05e5,2.11e5,7.32e5,8.51e5,inactive
CG2841,1,2.83e5,3.24e5,3.10e6,2.84e6,inactive
CG2841,2,6.82e5,5.63e5,2.25e6,2.45e6,inactive
CG8097,1,3.61e5,3.71e5,3.66e6,3.72e6,inactive
Arl5,1,7.48e5,9.07e5,1.82e6,2.32e6,inactive
Arl5,2,3.66e5,3.40e5,1.10e6,1.06e6,inactive
mah,1,2.30e5,2.07e5,3.22e6,2.44e6,inactive
mah,2,6.57e5,8.45e5,1.57e6,1.97e6,inactive
CG5447,1,2.38e5,2.13e5,3.12e6,3.06e6,inactive
CG5447,2,3.35e5,2.16e5,7.34e5,5.09e5,inactive
mthl10,1,1.35e5,1.48e5,1.15e6,1.05e6,inactive
mthl10,2,99027,1.54e5,2.32e6,2.02e6,inactive
mthl10,3,8.56e5,7.98e5,1.33e6,1.42e6,inactive
CG32376,1,9.04e5,1.14e6,1.89e6,1.78e6,inactive
alrm,1,1.37e5,1.75e5,1.61e6,1.90e6,inactive
